Source: PubChem BioAssay AID504834 (National Center for Advancing Translational Sciences (NCATS), 2011)
Several values for one entry are separate records, joined by “and”; a condition that tells them apart may be missing. Equal values may be shown once. Out of some 320,000 compounds screened, about 22,000 (6.9%) were called active. Inconclusive means that the source gave no clear call. Such entries were picked first, then a sample of the others. The call rests on the fitted dose curve; in most records, active means well fitted inhibition curve with a large enough effect; inconclusive means small, poorly fitted or top-dose-only effect, or another doubt; inactive means no such curve, though single readings can be large or run the other way. Potencies beside an inconclusive call are fits to weak or partial responses and may not hold up.

experiment: Primary qHTS for delayed death inhibitors of the malarial parasite plastid, 96 hour incubation; settings: P. falciparum luciferase reporter growth; series mostly up to 28.7 µM
How it was run: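 Erythrocytes infected with luciferase-expressing P. falciparum were dispensed at 2% hematocrit and 0.05% parasitemia (final), then incubated with compounds 96 hours at 37 C in 5% CO2. Luminescence after detection reagent addition reported growth.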
Potency means the concentration at half of the fitted maximal effect.

Row | SMILES | Potency
1 | COc1ccc(C(C)=O)cc1CSc1nncn1-c1ccccc1 | inconclusive: 13.1 µM [inhibitor, single point]
2 | COc1ccc(C(=O)/C(C#N)=N/Nc2cccc([N+](=O)[O-])c2)cc1 | inactive
3 | CN(C(=O)COC(=O)COc1ccccc1Cc1ccccc1)c1ccccc1 | inactive
4 | COCCOC(=O)c1c(NC(=O)CN2c3ccccc3CC2C)sc(C(N)=O)c1C (stereo not drawn) | inconclusive: 5.22 µM [inhibitor, single point]
5 | CC(O)(C#CCN1CCOCC1)c1ccccc1 (stereo not drawn) | inconclusive: 0.928 µM [inhibitor, partial curve, poor fit]
6 | Cc1cccnc1NC(=O)C12CCC(C)(C(=O)O1)C2(C)C (stereo not drawn) | inconclusive: 0.0294 µM [inhibitor, full curve, poor fit]
7 | CCOc1ccc(NC(=O)CCC(=O)n2nc(C)cc2C)cc1 | inconclusive: 10.4 µM [inhibitor, single point]
8 | CN(C)CCN(C(=O)c1ccccc1Cl)c1nc2c(Cl)cccc2s1 | inconclusive: 3.29 µM [inhibitor, single point]
9 | COc1ccc(C(CNC(=O)CCNC(=O)c2ccccc2OC)N2CCCC2)cc1 (stereo not drawn) | active: 11.7 µM
10 | C/C=C\C=C\C(=O)Nc1cccc(C2=NOC3(C2)C[C@H](C(N)=O)N(C(=O)c2ccccc2C(=O)c2ccccc2)C3)c1 (stereo partly drawn) | inconclusive: 0.828 µM [inhibitor, partial curve, poor fit]
11 | COc1cc2cc(C(=O)N3CCN(c4ccccc4OC)CC3)[nH]c2cc1OC | inconclusive: 4.65 µM [inhibitor, partial curve]
12 | COc1ccc(CN2CCNC(=O)C2CC(=O)N(C)Cc2nccn2C)cc1OC (stereo not drawn) | inactive
13 | COc1ccc(CN2CCN(C3CCOCC3)CC2CCO)c(C)c1C (stereo not drawn) | inconclusive: 11.7 µM [inhibitor, single point]
14 | COc1ccc(NC(=O)CN(C)C(=O)c2c(-c3ccccc3Cl)noc2C)cc1 | inactive
15 | O=C(CCC1CCCN(C(=O)c2cccc(F)c2)C1)N1CCN(c2ccccn2)CC1 (stereo not drawn) | inactive
16 | CCOC(=O)Cc1ncccc1C(=O)Nc1ccc(OC)cc1 | inconclusive: 10.4 µM [inhibitor, partial curve, poor fit]
17 | CC(C)(C)NNC(=S)Nc1cccc(C(F)(F)F)c1 | inconclusive: 9.28 µM [inhibitor, single point]
18 | Cc1cccc(NS(=O)(=O)c2cccc(C(=O)NCCCN3CCOCC3)c2)c1 | inactive
19 | O=c1c2ccccc2nnn1CSc1nnc(-c2cccnc2)n1-c1ccccc1F | inactive
20 | COc1ccc(OC)c(CC(=O)O)c1 | inactive
21 | COC(=O)c1cc(=O)[nH]c(SCc2cccc(C)c2)n1 | inconclusive: 10.4 µM [inhibitor, single point]
22 | Cc1cc(OC(C)C(=O)NCC(O)c2ccccc2)c2c(C)c(C)c(=O)oc2c1 (stereo not drawn) | inconclusive: 18.5 µM [inhibitor, partial curve, poor fit]
23 | COc1cccc(N2CC(C(=O)Nc3nnc(SCCN4CCOCC4)s3)CC2=O)c1 (stereo not drawn) | inactive

Row | SMILES | Potency
24 | Cc1ccc(C(=O)Nc2ccc3c(c2)OCO3)cc1Cl | inconclusive: 13.1 µM [inhibitor, single point]
25 | Cc1cc2c(cc1C)[n+](C)cn2CC(O)COCc1ccccc1 (stereo not drawn) | inconclusive: 3.7 µM [inhibitor, single point]
26 | O=C(c1ccc2c(c1)OCO2)C1CCCN(Cc2ccc(F)c(F)c2)C1 (stereo not drawn) | inconclusive: 10.4 µM [inhibitor, partial curve, poor fit]
27 | Cc1ccc(-n2c3nc(=O)[nH]c(=O)c-3cc3cc([N+](=O)[O-])ccc32)cc1 | inconclusive: 18.5 µM [inhibitor, single point]
28 | Cc1ccc(CN2CCN(Cc3ccc(C)s3)CC2CCO)cc1 (stereo not drawn) | inconclusive: 0.0828 µM [inhibitor, full curve, poor fit]
29 | O=C(CCNNC(=O)c1ccncc1)NCc1ccccc1 | inactive and inconclusive: 2.69 µM [inhibitor, partial curve, poor fit]
30 | Cc1csc(SCC(=O)c2c(N)n(C)c(=O)n(C)c2=O)n1 | inconclusive: 13.1 µM [inhibitor, single point]
31 | COc1ccc(NC(=O)CSc2ccc(-c3ccco3)nn2)cc1OC | inconclusive: 9.28 µM [inhibitor, partial curve]
32 | C=CCn1c(CCC(O)COCCC)n[nH]c1=S (stereo not drawn) | inactive
33 | CCOc1ccc2nc(SCC(=O)NCc3ccc(OC)c(OC)c3)[nH]c2c1 | inconclusive: 5.86 µM [inhibitor, partial curve, poor fit]
34 | CC1CC2=C(NC(=S)NC2c2ccc(F)cc2)/C(=C/c2ccc(F)cc2)C1 (stereo not drawn) | inconclusive: 3.29 µM [inhibitor, full curve, poor fit]
35 | CCN(C(=O)COC(=O)c1oc2ccc(OC)cc2c1C)C1CCCCC1 | inactive
36 | Cc1c(NC(=O)CSCc2ccc(Br)cc2)c(=O)n(-c2ccccc2)n1C | inconclusive: 1.47 µM [inhibitor, partial curve, poor fit]
37 | COc1cc(/C=C/C(=O)OCC(=O)NC2CC2)cc(S(=O)(=O)N2CCc3ccccc32)c1OC | inconclusive: 2.62 µM [inhibitor, partial curve, poor fit]
38 | Cc1cnc(C(=O)Nc2nc(-c3ccccc3)cs2)cn1 | inconclusive: 16.5 µM [inhibitor, single point]
39 | Cc1ccc(N(C(=O)c2sc(C)nc2C)C(C(=O)NC(C)(C)C)c2ccncc2)cc1 (stereo not drawn) | inconclusive: 18.5 µM [inhibitor, single point]
40 | O=C(N/N=C/C=C\c1ccccc1[N+](=O)[O-])c1ccncc1 | inactive
41 | CC(C)(C)c1ccc(S(=O)(=O)CC(O)CSc2nc3c(cc2C#N)CCCC3)cc1 (stereo not drawn) | inactive
42 | COc1ccc(OC)c(-n2nnnc2SCC(=O)N2CCN(C(=O)c3ccco3)CC2)c1 | inconclusive: 4.15 µM [inhibitor, single point]
43 | COc1ccc(-c2csc(NC(=O)Cc3ccccc3F)n2)c(OC)c1 | inconclusive: 0.415 µM [inhibitor, full curve, poor fit]
44 | CCN1CCN(Cc2nc3cc(NC(=O)COc4ccc([N+](=O)[O-])cc4)ccc3n2C)CC1 | inconclusive: 14.7 µM [inhibitor, single point]
45 | CC(NCc1ccc(S(N)(=O)=O)cc1)C(=O)N1c2ccccc2CC1C (stereo not drawn) | inactive
46 | Cc1cc(C)n2nc(SCc3nc4ccccc4[nH]3)nc2n1 | active: 7.38 µM

Given with each value named: two of the compounds above
COc1ccc(NC(=O)CSc2ccc(-c3ccco3)nn2)cc1OC
  Potency: inconclusive: 9.28 µM [inhibitor, partial curve]
Cc1cnc(C(=O)Nc2nc(-c3ccccc3)cs2)cn1
  Potency: inconclusive: 16.5 µM [inhibitor, single point]

The results go on:

Row | SMILES | Potency
47 | NC(=O)CC(NC(=O)c1ccccc1)c1ccc(NCCc2cccc(F)c2)c([N+](=O)[O-])c1 (stereo not drawn) | inconclusive: 18.5 µM [inhibitor, single point]
48 | Brc1ccc(Cn2c(-c3ccc(Br)o3)nc3ccccc32)o1 | inconclusive: 11.7 µM [inhibitor, partial curve, poor fit]
49 | C=CCn1c(SCC(=O)N2CCN(c3ccc(F)cc3)CC2)nnc1-c1cccs1 | inconclusive: 11.7 µM [inhibitor, single point]
50 | C[C@@H]1CN(Cc2nc(-c3cccs3)no2)C[C@H](C)O1 | inactive
51 | C/C(CC(=O)NC1CCCCC1)=N\NC(=O)Cc1ccc(-c2ccccc2)cc1 | inconclusive: 13.1 µM [inhibitor, single point]
52 | CCOc1ccc(-c2cc(C(=O)NCC3CCCO3)c3ccccc3n2)cc1 (stereo not drawn) | inactive
53 | COc1ccc(/C=C(/NC(=O)c2ccccc2)C(=O)N/N=C/c2ccncc2)cc1 | inactive
54 | CCOc1ccc2nc(NC(=O)COc3ccc(N(C)S(=O)(=O)c4ccc(C)cc4)cc3)sc2c1 | inconclusive: 0.828 µM [inhibitor, full curve, poor fit]
55 | Cc1ccc(S(=O)(=O)Nc2cc(C)cn(Cc3ccc(F)cc3)c2=O)cc1 | inconclusive: 11.7 µM [inhibitor, partial curve, poor fit]
56 | O=C1C=C(NCc2ccc(Cl)cc2Cl)C2(CCCCC2)O1 | inconclusive: 16.5 µM [inhibitor, partial curve, poor fit]
57 | CC(=O)Nc1ccc(C(=O)OCC(=O)c2ccc(F)cc2)cc1 | inactive
58 | CCCCNC(=O)c1ccc(Cn2c(=S)[nH]c3c([nH]c4ccc(OC)cc43)c2=O)cc1 | inconclusive: 9.28 µM [inhibitor, single point]
59 | Oc1ccc2ccccc2c1CN1CCN(c2ccccc2)CC1 | inconclusive: 11.7 µM [inhibitor, partial curve]
60 | Cn1cnc2cc(NCc3ccccc3Cl)ccc21 | inactive
61 | COCCN(Cc1ccccc1)C(=O)C1CCN(S(=O)(=O)c2ccc(OC)c(OC)c2)CC1 | inconclusive: 1.04 µM [inhibitor, partial curve]
62 | COC(=O)c1sc(N)c(C(=O)OC)c1COC(=O)CNS(=O)(=O)c1ccc(C)c(C)c1 | inconclusive: 20.8 µM [inhibitor, partial curve, poor fit]
63 | N#C/C(=C\c1ccccc1OCc1ccc(C(=O)O)cc1)C(=O)Nc1ccc(O)cc1 | inactive
64 | C=C1CC2C(CC[C@]3(C)C(=O)CCC23)[C@]2(C)C=CC(=O)C=C12 (stereo partly drawn) | active: 13.5 µM
65 | CCOC(=O)c1cnc2cc(-c3ccc(Br)cc3)nn2c1C | active: 13.1 µM
66 | CSC1=NCCN1C(=O)C12CC3CC(CC(C3)C1)C2 | inconclusive: 18.5 µM [inhibitor, single point]
67 | CCOC(=O)c1cc(-c2ccccc2)sc1NC(=O)COC | inactive
68 | COc1ccc(C2OC(=O)CC2C(=O)NCc2ccc(C)cc2)cc1OC (stereo not drawn) | active: 9.28 µM
